Source: ChEMBL document CHEMBL4028801, “A multifactorial approach to hepatobiliary transporter assessment enables improved therapeutic compound development” (Toxicol Sci, 2013)
pIC50: −log10 of the molar value.

Amino acid sequences for entries named in this document (tags omitted).
UniProt O95342, whole entry: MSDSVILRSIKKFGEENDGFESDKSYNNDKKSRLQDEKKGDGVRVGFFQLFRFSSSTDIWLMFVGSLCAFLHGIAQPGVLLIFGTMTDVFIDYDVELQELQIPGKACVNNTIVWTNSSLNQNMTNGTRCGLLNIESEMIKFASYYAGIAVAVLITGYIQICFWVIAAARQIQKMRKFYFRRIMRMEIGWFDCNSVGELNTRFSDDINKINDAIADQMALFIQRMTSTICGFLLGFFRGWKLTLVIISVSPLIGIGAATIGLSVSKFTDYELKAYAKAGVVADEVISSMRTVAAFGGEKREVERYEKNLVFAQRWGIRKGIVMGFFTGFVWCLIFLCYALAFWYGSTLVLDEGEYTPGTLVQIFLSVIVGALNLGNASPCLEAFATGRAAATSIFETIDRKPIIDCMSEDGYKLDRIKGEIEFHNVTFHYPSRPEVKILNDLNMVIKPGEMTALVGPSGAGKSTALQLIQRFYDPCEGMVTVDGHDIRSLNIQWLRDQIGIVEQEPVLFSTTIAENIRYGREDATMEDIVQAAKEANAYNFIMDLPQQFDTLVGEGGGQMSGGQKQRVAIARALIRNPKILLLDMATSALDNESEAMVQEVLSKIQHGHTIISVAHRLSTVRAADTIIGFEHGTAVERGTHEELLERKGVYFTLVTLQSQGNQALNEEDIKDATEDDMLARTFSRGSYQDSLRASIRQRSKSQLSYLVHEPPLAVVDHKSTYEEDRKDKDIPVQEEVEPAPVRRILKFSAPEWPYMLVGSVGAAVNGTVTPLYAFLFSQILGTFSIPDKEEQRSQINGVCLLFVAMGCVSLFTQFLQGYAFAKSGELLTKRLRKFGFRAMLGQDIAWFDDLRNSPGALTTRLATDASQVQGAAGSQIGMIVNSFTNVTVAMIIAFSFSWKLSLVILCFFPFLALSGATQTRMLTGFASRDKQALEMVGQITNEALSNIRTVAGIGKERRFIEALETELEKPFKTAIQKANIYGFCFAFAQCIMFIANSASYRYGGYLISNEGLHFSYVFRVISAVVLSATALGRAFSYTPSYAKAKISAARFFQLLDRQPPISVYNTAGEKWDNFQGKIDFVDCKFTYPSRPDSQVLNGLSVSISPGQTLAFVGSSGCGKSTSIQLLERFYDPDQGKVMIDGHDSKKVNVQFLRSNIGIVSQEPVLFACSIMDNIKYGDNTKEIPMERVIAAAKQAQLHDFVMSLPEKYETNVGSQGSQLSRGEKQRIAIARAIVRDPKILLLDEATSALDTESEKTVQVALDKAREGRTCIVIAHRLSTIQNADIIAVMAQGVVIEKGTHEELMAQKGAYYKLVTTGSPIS

biological target: Bile salt export pump (Homo sapiens, UniProt O95342); experiment: Inhibition of human BSEP overexpressed in Sf9 cell membrane vesicles assessed as uptake of [3H]-taurocholate in presence of ATP measured after 15 to 20 mins by membrane vesicle transport assay; type: ADME, cell-based

| SMILES | pIC50 |
| --- | --- |
| O=C1CCc2ccc(OCCCCN3CCN(c4cccc(Cl)c4Cl)CC3)cc2N1 [ARIPIPRAZOLE] | < 3.88 |
| Clc1ccc2c(c1)CCc1cccnc1C2=C1CCNCC1 [DESLORATADINE] | < 3.88 |
| CN1CCN(CCCN2c3ccccc3Sc3ccc(Cl)cc32)CC1 [PROCHLORPERAZINE] | < 3.88 |
| Cc1nc2n(c(=O)c1CCN1CCC(c3noc4cc(F)ccc34)CC1)CCCC2 [RISPERIDONE] | < 3.88 |
